Taken from: PubChem BioAssay AID1508588 (Peter MacCallum Cancer Centre, 2020)
Assay: 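Which gene losses make BRAF-mutant melanoma cells more responsive to vemurafenib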 (primary screen). System: human WM266.4 melanoma cells (BRAF V600 mutant). Reagent: siRNA pool against human genes, 40 nM. Time to read-out: 96 h from transfection to read-out. Treatment: vemurafenib 300 nM (about IC25), added 48 h after transfection, for 48 h; comparison arm got DMSO vehicle only. Measured: 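Cell gain (DAPI nuclei at end minus before drug, mean of two replicates) and medium lactate by absorbance per cell, both as ratio to non-targeting siRNA, also grouped into fold-change classes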. Scale: cell gain with vemurafenib: higher = more cell gain than with non-targeting siRNA; lactate per cell with vemurafenib: higher = more lactate made per cell. Active means: 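Enhancement is called by pairing each knock-down's vehicle-arm and drug-arm fold-change classes for viability or glycolysis; which class combinations qualify is not given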. Calls: active = enhances vemurafenib effect; inactive = no enhancement seen.
The deposit covers about 18,000 reagents; this is an unselected part. Over the whole deposit, 790 (4.4%) were called active. 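Calls rest on a combination of fold-change classes in drug and vehicle arms, not all shown here.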 A number with no mark means an inactive call.

| gene | cell gain with vemurafenib | lactate per cell with vemurafenib |
| --- | --- | --- |
| CTSA (GeneID 5476) | 1.05 | 1.06 |
| CDKAL1 (GeneID 54901) | 0.63 | 0.86 |
| AKAP4 (GeneID 8852) | 0.96 | 1 |
| ING3 (GeneID 54556) | 0.22 (active) | 0.28 |
| GLB1L2 (GeneID 89944) | -0.11 | 3.7 |
| OGFOD2 (GeneID 79676) | 0.79 | 0.66 |
| CSPG4 (GeneID 1464) | 0.77 | 1.27 |
| SCARF1 (GeneID 8578) | 0.32 | 0.62 |
| SOAT2 (GeneID 8435) | 0.22 | 2.08 |
| USP38 (GeneID 84640) | 1.17 | 0.56 |
| SLC46A1 (GeneID 113235) | 1.28 | 0.7 |
| UQCRC1 (GeneID 7384) | 0.83 | 1.48 |
| ALX3 (GeneID 257) | 0.34 | 0.34 |
| GK5 (GeneID 256356) | 0.35 | 0.12 |
| RAD9A (GeneID 5883) | 0.32 | 1.17 |
| SCRT2 (GeneID 85508) | 0.63 | 1.32 |
| UQCRC2 (GeneID 7385) | 0.56 | 1.66 |

Part of the list above in another layout:
CSPG4 (GeneID 1464)
- cell gain with vemurafenib: 0.77
- lactate per cell with vemurafenib: 1.27

SCARF1 (GeneID 8578)
- cell gain with vemurafenib: 0.32
- lactate per cell with vemurafenib: 0.62

SOAT2 (GeneID 8435)
- cell gain with vemurafenib: 0.22
- lactate per cell with vemurafenib: 2.08

USP38 (GeneID 84640)
- cell gain with vemurafenib: 1.17
- lactate per cell with vemurafenib: 0.56

Further entries:
| gene | cell gain with vemurafenib | lactate per cell with vemurafenib |
| --- | --- | --- |
| MYBL2 (GeneID 4605) | 0.45 | 2.19 |
| HTN1 (GeneID 3346) | 0.26 | 0.9 |
| C2CD3 (GeneID 26005) | 0.71 | 0.73 |
| HLA-DRB5 (GeneID 3127) | 0.65 | 0.92 |
| FGF16 (GeneID 8823) | 0.81 | 1.04 |
| TACO1 (GeneID 51204) | 0.58 | 0.9 |
| AIF1L (GeneID 83543) | 0.2 (active) | 0.32 |
| HOMER1 (GeneID 9456) | 0.9 | 0.6 |
| AADACL4 (GeneID 343066) | 0.54 | 1.36 |
| ANKRD40 (GeneID 91369) | 0.72 | 0.75 |
| PIK3R3 (GeneID 8503) | 0.7 | 1 |
| MBD6 (GeneID 114785) | 0.85 | 0.62 |
| ZNF835 (GeneID 90485) | 0.53 | 0.84 |
| EPN1 (GeneID 29924) | 0.73 | 0.38 |
| IGSF11 (GeneID 152404) | 0.84 | 0.56 |
| ECT2L (GeneID 345930) | 0.14 | 1.48 |
| C10orf95 (GeneID 79946) | 0.17 | 0.95 |
